These are yes or no findings as the source states them, for the method shown. Binding seen in cells or lysates may run through a third protein. Some binding calls cover weakened binding; strength is not graded here.

The target in test [1] is N-terminal FLAG-tagged full-length BAG3 (BAG3-WT, amino acids 1-575) (UniProt O95817). In words: co-IP; HeLa cells cotransfected with tagged constructs; lysed in RIPA buffer (total cell extracts); immunoprecipitation with anti-FLAG or anti-GFP, western blot. For orientation: In western blotting, separated proteins are transferred to a membrane and probed.
Another test concerns the target GFP-tagged BAG3 (UniProt O95817). The description is as above.
Test [2] has as its target p53, endogenous (human (endogenous in HeLa)) (UniProt P04637). In words: co-IP; endogenous proteins; HeLa WT and bag3 KO cells heat stressed at 42 °C for 1 h, recovery at 37 °C for 1 h; nuclear fractions; immunoprecipitation with anti-Hsp70 or anti-p53, western blot.

For “N-terminal myc-tagged full-length p53 (p53-WT, amino acids 1-393) (from UniProt P04637 1-393)”, the binding entry (in test [1]; with GFP-tagged BAG3) was “binds” each time.

Take “Bcl-2-associated athanogene 3 (BAG3), endogenous (from UniProt O95817 1-575)”: the binding result in test [2] was “binds”.

The values above are taken from paper PMC12667200.
